# Source: patent US10292388B2, “Malononitrile compounds for controlling animal pests” (BASF SE, priority 2012, dated 2019)
# Some results were stated once for a whole list of compounds, not compound by compound.
# Tested on: yellow fever mosquito (Aedes aegypti)
# Type: in vivo
# Settings: 2500 ppm; freshly hatched larvae in tap water; larval mortality after 2 days
# Method: B.12 Yellow Fever Mosquito (Aedes aegypti)
# For evaluating control of yellow fever mosquito (Aedes aegypti) the test unit consisted of 96-well-microtiter plates containing 200 μl of tap water per well and 5-15 freshly hatched A. aegypti larvae. The compounds or mixtures were formulated using a solution containing 75% water and 25% DMSO. Different concentrations of formulated compounds or mixtures were sprayed onto the insect diet at 2.5 μl, using a custom built micro atomizer, at two replications. After application, microtiter plates were incubated at 28±1° C., 80±5% relative humidity for 2 days. Larval mortality was then visually assessed.
row,Structure (SMILES),mortality in comparison with untreated controls
1,N#CC(C#N)(Cc1ccc(C(F)(F)F)cc1C(F)(F)F)c1ccc(F)cc1 [II-54],at least 75%
2,C#Cc1ccc(CC(C#N)(C#N)c2ccccc2)cc1 [II-32],at least 75%
3,C#Cc1ccc(CC(C#N)(C#N)c2cc(F)cc(F)c2)cc1 [II-86],at least 75%
4,CC(c1ccc(C(F)(F)F)cc1)C(C#N)(C#N)c1cccc(F)c1 (stereo not drawn) [II-74],at least 75%
5,C#Cc1ccc(CC(C#N)(C#N)c2ccc(F)cc2)cc1 [II-35],at least 75%
6,Cc1ccc(CC(C#N)(C#N)c2ccc(F)cc2)c(C)c1 [II-56],at least 75%
7,C#Cc1ccc(CC(C#N)(C#N)c2c(Cl)cc(C(F)(F)F)cc2Cl)cc1 [II-104],at least 75%
8,N#CC(C#N)(Cc1ccc(OC(F)(F)F)cc1)c1ccc(F)cc1 [II-61],at least 75%
9,N#CC(C#N)(Cc1ccccc1)c1ccccc1 [II-45],at least 75%
10,CC(C)OC(=O)c1ccc(CC(C#N)(C#N)c2ccc(F)cc2)cc1 [II-154],at least 75%
11,CC(c1ccc(C(F)(F)F)cc1)C(C#N)(C#N)c1ccc(F)cc1 (stereo not drawn) [II-50],at least 75%
12,CCC(c1ccc(C(F)(F)F)cc1)C(C#N)(C#N)c1ccc(F)cc1 (stereo not drawn) [II-68],at least 75%
13,N#CC(C#N)(Cc1ccc(I)cc1)c1cc(F)c(F)c(F)c1 [II-151],at least 75%
14,N#CC(C#N)(Cc1ccc(C(F)(F)F)cc1C(F)(F)F)c1cc(F)c(F)c(F)c1 [II-180],at least 75%
15,N#CC(C#N)(Cc1ccc(CF)cc1)c1ccc(F)cc1 [II-205],at least 75%
16,N#CC(C#N)(Cc1ccc(Br)c(F)c1)c1ccc(F)cc1 [II-82],at least 75%
17,C#Cc1ccc(CC(C#N)(C#N)c2cc(F)cc(C(F)(F)F)c2)cc1 [II-118],at least 75%
18,N#CC(C#N)(Cc1ccc(SC(F)(F)F)cc1)c1cc(F)c(F)c(F)c1 [II-145],at least 75%
19,N#CC(C#N)(Cc1ccc(C(F)(F)F)c(F)c1)c1ccccc1 [II-60],at least 75%

row,Structure (SMILES),mortality in comparison with untreated controls
1,N#CC(C#N)(Cc1ccc(C(O)(C(F)(F)F)C(F)(F)F)cc1)c1ccc(F)cc1 [II-207],at least 75%
2,COc1cccc(CC(C#N)(C#N)c2cc(F)c(F)c(F)c2)c1 [II-185],at least 75%
3,N#CC(C#N)(Cc1ccc(Cl)cc1)c1cc(F)c(F)c(F)c1 [II-144],at least 75%
4,N#CC(C#N)(Cc1ccc(C(F)(F)F)cc1)c1ccc(F)cc1 [II-47],at least 75%
5,N#CC(C#N)(Cc1ccc(OC(F)(F)F)cc1)c1cccc(F)c1 [II-73],at least 75%
6,CC(c1ccc(C(F)(F)F)cc1)C(C#N)(C#N)c1cccc(F)c1F (racemic) [II-111],at least 75%
7,N#CC(C#N)(Cc1ccc(F)cc1)c1cccc(C(F)(F)F)c1 [II-92],at least 75%
8,CC(c1ccc(Br)cc1)C(C#N)(C#N)c1ccccc1 (stereo not drawn) [II-71],at least 75%
9,N#CC(C#N)(Cc1ccc(Br)cc1)c1cc(F)c(F)c(F)c1 [II-149],at least 75%
10,C#Cc1ccc(CC(C#N)(C#N)c2cc(F)c(F)c(F)c2)cc1 [II-109],at least 75%
11,N#CC(C#N)(Cc1ccc(SC(F)(F)F)cc1)c1ccccc1 [II-22],at least 75%
12,N#CC(C#N)(Cc1ccc(SC(F)(F)F)cc1)c1ccc(F)cc1 [II-62],at least 75%
13,N#CC(C#N)(Cc1ccc(I)cc1)c1ccc(F)cc1 [II-63],at least 75%
14,CC(c1ccc(Br)cc1)C(C#N)(C#N)c1ccc(F)cc1 (stereo not drawn) [II-70],at least 75%
15,N#CC(C#N)(Cc1ccc(C(F)(C(F)(F)F)C(F)(F)F)cc1)c1ccc(F)cc1 [II-198],at least 75%
16,CC(c1ccc(C(F)(F)F)cc1)C(C#N)(C#N)c1cccc(C#N)c1 (stereo not drawn) [II-101],at least 75%
17,CC(c1ccc(C(F)(F)F)cc1)C(C#N)(C#N)c1ccc2ncccc2c1 (stereo not drawn) [III-5],at least 75%
18,C#Cc1ccc(CC(C#N)(C#N)c2cccc(F)c2)cc1 [II-66],at least 75%
19,CC(c1ccc(F)cc1F)C(C#N)(C#N)c1cc(F)cc(F)c1 (racemic) [II-131],at least 75%

row,Structure (SMILES),mortality in comparison with untreated controls
1,C#CC1CCC(CC(C#N)(C#N)c2ccccc2)CC1 (stereo not drawn) [II-65],at least 75%
2,CC(c1ccc(C(F)(F)F)cc1)C(C#N)(C#N)c1ccccc1 (stereo not drawn) [II-49],at least 75%
3,N#CC(C#N)(Cc1ccc(C(F)(F)F)cc1)c1cc(F)cc(F)c1 [II-85],at least 75%
4,N#CC(C#N)(Cc1ccc(CC(F)(F)F)cc1)c1ccc(F)cc1 [II-206],at least 75%
5,N#CC(C#N)(Cc1ccc(C(F)(F)F)cc1F)c1ccccc1 [II-58],at least 75%
6,N#CC(C#N)(Cc1ccc(C(F)(F)F)c(F)c1)c1ccc(F)cc1 [II-59],at least 75%
7,N#CC(C#N)(Cc1ccc(F)cc1)c1cc(F)c(F)c(F)c1 [II-143],at least 75%
8,N#CC(C#N)(Cc1cc(Cl)c(C(F)(F)F)cc1Cl)c1ccc(F)cc1 [II-102],at least 75%
9,N#CC(C#N)(Cc1cccc(OC(F)(F)F)c1)c1cc(F)c(F)c(F)c1 [II-186],at least 75%
10,C#Cc1ccc(CC(C#N)(C#N)c2cccc(OC)c2)cc1 [II-97],at least 75%
11,CC(c1ccc(C(F)(F)F)cc1)C(C#N)(C#N)c1cc(F)cc(F)c1 (stereo not drawn) [II-87],at least 75%
12,N#CC(C#N)(Cc1ccc(C(F)(F)F)cc1)c1cccc(F)c1 [II-67],at least 75%
13,Cc1ccc(CC(C#N)(C#N)c2ccccc2)c(C)c1 [II-55],at least 75%
14,CC(c1cccc(C(F)(F)F)c1)C(C#N)(C#N)c1cc(F)c(F)c(F)c1 (stereo not drawn) [II-188],at least 75%
15,N#CC(C#N)(Cc1ccc(Cl)c(Cl)c1)c1cc(F)c(F)c(F)c1 [II-199],at least 75%
16,COc1cccc(C(C#N)(C#N)Cc2ccc(C(F)(F)F)cc2)c1 [II-88],at least 75%
17,N#CC(C#N)(Cc1ccccc1OC(F)F)c1cc(F)c(F)c(F)c1 [II-183],at least 75%
18,C#Cc1ccc(CC(C#N)(C#N)c2ccc(F)c(F)c2F)cc1 [II-191],at least 75%
19,C#Cc1ccc(CC(C#N)(C#N)c2cccc(F)c2F)cc1 [II-106],at least 75%
